Step yield data for ten substances are collected here from patent US4073890 (dated 1978).

Square brackets hold non-standard residues; d marks the D form. Ends that are not written are not given here. * marks the point of attachment. Arg(NO2) = N=C(NCCC[C@H](N)C(=O)O)N[N+](=O)[O-]; Cbz = O=C(OCc1ccccc1)*; Boc = CC(C)(C)OC(=O)*; OtBu = CC(C)(C)O*; βAla = NCCC(=O)O

One data set is described as follows: peptide synthesis. The note with it: coupling step, acetate.
In the case of Di-Z-α,γ-Dab-Arg(NO2)-Gly-Phe-Phe-NH2, the step yield was found to be 78%. On the same count and under the same terms, next, Cbz-FFYTPK(Boc)A-OtBu: 100%; Cbz-TPK(Boc)A-OtBu: 93%; “di-Z-α, γ-Dab-Arg(NO2)-Gly-Phe-Phe-Tyr-NH2”: 51%. On the same count and under the same terms, in the case of di-Z-Lys-Arg(NO2)-Gly-Phe-Phe-NH2 it was 77%. The same measure, in the same setting: in the case of Zε-Acap-Arg-Pro-Phe-Phe-Tyr-NH2 it was 79.1%. On to Cbz-[Arg(NO2)]GFFYTPK(Boc)A-OtBu, for which the step yield came out at 88%. In turn, “Z-β-Ala-Arg(NO2)-Gly-Phe-Phe-Tyr-Thr-Pro-O^t Bu” yielded a step yield of 67.4%.

The same data set, now with this note: coupling step, p-toluenesulfonate.
Cbz-GRPFFY-NH2 had a step yield of 89.5%.

The same data set, now with this note: late stage modification step, acetate.
In turn, [βAla]RGFF-NH2 had a step yield of 66%.
